Results on 1 substance are retold here after article PMC11387234, “Identification of novel inhibitors of the transcriptional coactivator MRTF-A for HCC therapy” (Molecular Therapy Oncology, 2024).

By UniProt entry, the sequences of proteins in these tests, tags left out.
UniProt Q96QT4: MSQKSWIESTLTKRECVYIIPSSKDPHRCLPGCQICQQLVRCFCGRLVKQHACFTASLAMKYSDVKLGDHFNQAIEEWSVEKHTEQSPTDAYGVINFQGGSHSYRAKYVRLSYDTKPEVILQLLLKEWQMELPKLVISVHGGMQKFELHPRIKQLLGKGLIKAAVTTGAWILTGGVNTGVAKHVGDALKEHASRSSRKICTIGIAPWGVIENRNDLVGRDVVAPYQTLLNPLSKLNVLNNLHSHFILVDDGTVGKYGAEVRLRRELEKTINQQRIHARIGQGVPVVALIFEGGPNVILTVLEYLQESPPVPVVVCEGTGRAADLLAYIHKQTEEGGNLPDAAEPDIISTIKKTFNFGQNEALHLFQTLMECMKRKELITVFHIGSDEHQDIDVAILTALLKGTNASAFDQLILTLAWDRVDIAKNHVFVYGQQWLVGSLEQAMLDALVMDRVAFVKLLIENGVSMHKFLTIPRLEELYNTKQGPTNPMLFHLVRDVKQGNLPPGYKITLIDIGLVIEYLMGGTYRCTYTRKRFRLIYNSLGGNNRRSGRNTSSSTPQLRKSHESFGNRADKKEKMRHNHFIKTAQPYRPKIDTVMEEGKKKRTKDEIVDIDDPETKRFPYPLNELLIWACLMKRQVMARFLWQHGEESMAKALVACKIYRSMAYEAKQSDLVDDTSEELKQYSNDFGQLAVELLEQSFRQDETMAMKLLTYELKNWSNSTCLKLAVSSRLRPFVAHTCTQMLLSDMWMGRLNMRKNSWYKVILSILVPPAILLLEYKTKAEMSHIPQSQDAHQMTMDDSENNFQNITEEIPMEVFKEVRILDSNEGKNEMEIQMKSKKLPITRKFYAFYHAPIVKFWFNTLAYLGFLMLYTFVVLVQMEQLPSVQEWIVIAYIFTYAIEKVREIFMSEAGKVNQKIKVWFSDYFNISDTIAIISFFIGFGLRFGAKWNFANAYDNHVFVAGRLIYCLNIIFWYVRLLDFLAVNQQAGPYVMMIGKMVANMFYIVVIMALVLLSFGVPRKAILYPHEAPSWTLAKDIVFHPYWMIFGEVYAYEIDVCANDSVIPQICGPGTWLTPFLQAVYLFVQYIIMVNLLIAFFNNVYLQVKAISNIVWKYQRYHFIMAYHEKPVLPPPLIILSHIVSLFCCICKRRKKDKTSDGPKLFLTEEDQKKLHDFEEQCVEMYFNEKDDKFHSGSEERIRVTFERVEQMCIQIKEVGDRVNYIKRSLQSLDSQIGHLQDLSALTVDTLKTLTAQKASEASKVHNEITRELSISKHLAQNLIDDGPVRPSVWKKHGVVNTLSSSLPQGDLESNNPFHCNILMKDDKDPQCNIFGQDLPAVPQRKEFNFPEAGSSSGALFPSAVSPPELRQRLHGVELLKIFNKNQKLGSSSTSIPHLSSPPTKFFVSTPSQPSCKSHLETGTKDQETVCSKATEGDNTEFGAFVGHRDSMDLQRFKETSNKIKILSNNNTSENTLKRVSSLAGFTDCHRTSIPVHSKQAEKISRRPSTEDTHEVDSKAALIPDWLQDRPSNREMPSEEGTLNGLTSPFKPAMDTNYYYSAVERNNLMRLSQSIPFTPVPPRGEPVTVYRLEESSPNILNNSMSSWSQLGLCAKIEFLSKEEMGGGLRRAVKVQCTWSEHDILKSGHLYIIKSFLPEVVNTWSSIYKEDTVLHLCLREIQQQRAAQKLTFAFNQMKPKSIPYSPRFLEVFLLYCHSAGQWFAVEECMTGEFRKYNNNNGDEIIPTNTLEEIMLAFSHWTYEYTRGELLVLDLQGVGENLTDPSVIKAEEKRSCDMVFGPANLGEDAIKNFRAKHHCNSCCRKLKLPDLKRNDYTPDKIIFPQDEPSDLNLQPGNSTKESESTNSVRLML
UniProt P61586: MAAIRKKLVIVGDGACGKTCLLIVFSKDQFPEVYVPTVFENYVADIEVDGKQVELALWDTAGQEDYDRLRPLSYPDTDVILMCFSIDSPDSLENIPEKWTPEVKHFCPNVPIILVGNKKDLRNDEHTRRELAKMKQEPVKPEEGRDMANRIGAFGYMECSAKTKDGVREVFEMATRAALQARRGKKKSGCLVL

For the assay, the target named is transient receptor potential cation channel TRPM7 (human (endogenous in HuH7)) (UniProt Q96QT4). The experiment in a line: proximity ligation; DuoLink In situ Red kit (mouse/rabbit) on HuH7 cells, endogenous TRPM7 and RhoA, anti-TRPM7/TRPM6 and anti-RhoA primary antibodies; cells treated for 6 h with compound 5 (5 uM), compound 8 or rNS (30 uM); PLA signals counted in 15 cells per condition.

Results are given in words; binding and its absence hold for the method and conditions named. Binding seen in cells or lysates may run through a third protein. Some results given as binding are weak or reduced against the parent protein; the word gives no strength.

Regarding RhoA (from UniProt P61586 1-193), the binding entry is recorded as “binds”.
